One assay addresses Gpc4ΔHS mutant (Xenopus). Kind of assay: fluorescence imaging of a secreted mV-tagged protein accumulating on overexpressing cells in the embryo; Xenopus embryo; glypican or its ΔHS mutant overexpressed by mRNA injection; accumulation of the secreted mV-tagged protein on the cell membrane compared with non-expressing control cells.
The target in assay [1] is Gpc5ΔHS mutant (X. laevis). Described as above.

These are yes or no findings as the source states them, for the method shown. Sequences can lack the tags named with a protein.

B1: Wnt8 fused with monomeric Venus (mV-Wnt8) (ligand, UniProt P28026 23-358)
chain: AWSVNNFLMTGPKAYLTYSASVAVGAQNGIEECKYQFAWERWNCPESTLQLATHNGLRSATRETSFVHAISSAGVMYTLTRNCSMGDFDNCGCDDSRNGRIGGRGWVWGGCSDNAEFGERISKLFVDGLETGQDARALMNLHNNEAGRLAVKETMKRTCKCHGISGSCSIQTCWLQLAEFRDIGNHLKIKHDQALKLEMDKRKMRSGNSADNRGAIADAFSSVAGSELIFLEDSPDYCLKNISLGLQGTEGRECLQSGKNLSQWERRSCKRLCTDCGLRVEEKKTEIISSCNCKFHWCCTVKCEQCKQVVIKHFCARRERDSNMLNTKRKNRGHRR
For the molecule B1, the binding entry (in the assay with Gpc4ΔHS mutant (Xenopus); in assay [1]) was “no binding” throughout.

The values are drawn from article PMC5719454.
